The source of these data is PMC7862700.

Protein sequences, listed by entry. Tags and fused reporters are not part of them. Lines headed by an entry give the natural chain unless they say otherwise; changes in a name come on top.
UniProt Q00613: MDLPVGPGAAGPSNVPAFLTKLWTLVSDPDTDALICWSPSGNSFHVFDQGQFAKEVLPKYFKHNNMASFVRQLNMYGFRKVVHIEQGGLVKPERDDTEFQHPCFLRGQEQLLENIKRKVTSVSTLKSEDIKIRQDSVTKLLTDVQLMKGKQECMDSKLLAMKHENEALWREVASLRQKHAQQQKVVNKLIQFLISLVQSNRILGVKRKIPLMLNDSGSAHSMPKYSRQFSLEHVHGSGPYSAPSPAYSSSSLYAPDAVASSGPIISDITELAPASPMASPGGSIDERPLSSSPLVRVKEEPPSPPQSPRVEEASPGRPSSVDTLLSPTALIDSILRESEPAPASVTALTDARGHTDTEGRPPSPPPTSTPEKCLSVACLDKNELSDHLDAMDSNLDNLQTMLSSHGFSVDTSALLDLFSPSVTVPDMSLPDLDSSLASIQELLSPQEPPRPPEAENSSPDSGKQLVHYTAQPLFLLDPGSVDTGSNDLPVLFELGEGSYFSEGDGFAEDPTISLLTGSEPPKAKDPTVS

Only a part is listed here, and it is no random draw. For part of these data: At the low end of the ranking the order means little. The list shows a part of the results. For part of these data: Construct or isoform of the protein are uncertain.

Assay [1] addresses HSF1 (UniProt Q00613). In words: DAPPL (digital affinity profiling via proximity ligation, sequencing). As to conditions: 10 mM Tris-HCl pH 7.5, 50 mM NaCl, 1 mM DTT, 4% glycerol, room temperature, 30 min; GST-TFs on glutathione beads, 16-mer random dsDNA library, 0.1% …; high values mean tight binding; double strand, one strand shown; scale: fold enrichment (6-mer frequency, TF over GST control).

The target in assay [2] is T1, ELF2 (UniProt Q15723).
T1 sequence: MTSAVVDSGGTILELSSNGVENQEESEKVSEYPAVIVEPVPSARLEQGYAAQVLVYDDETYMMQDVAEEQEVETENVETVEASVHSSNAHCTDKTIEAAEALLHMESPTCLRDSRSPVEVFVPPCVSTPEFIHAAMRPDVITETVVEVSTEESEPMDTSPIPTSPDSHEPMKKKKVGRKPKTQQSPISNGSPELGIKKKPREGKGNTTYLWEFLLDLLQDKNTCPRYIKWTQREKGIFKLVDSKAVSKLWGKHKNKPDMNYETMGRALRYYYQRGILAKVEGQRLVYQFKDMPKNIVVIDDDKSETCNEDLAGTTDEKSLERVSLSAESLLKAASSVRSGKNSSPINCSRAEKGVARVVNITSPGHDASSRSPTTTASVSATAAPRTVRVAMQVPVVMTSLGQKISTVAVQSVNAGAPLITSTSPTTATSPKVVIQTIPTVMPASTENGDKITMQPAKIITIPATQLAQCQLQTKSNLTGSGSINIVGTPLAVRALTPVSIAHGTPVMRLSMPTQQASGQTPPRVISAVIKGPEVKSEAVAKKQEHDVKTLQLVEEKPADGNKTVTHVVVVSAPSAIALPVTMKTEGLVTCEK
The description is as above. As to conditions: 10 mM Tris-HCl pH 7.5, 50 mM NaCl, 1 mM DTT, 4% glycerol, room temperature, 30 min; GST-TFs on glutathione beads, 16-mer random dsDNA library, 0.1% …; high values mean tight binding; double strand, one strand shown; scale: fold enrichment (6-mer frequency, TF over GST control).

In the case of CAACAT, the binding signal in assay [1] worked out at 0.908; in assay [2], 1.14.
Regarding CTAGCT, the binding signal was 1.53 in assay [1] and 1.23 in assay [2].
In the same order, the values of AAGTCA are 0.966 and 1.25.
In the same order, the values of GTCTTT are 1.22 and 1.19.
In the same order, the values of GTTGCA are 0.84 and 1.14.
Take AGGCTC: the binding signal in assay [1] was determined as 1.14; in assay [2], 1.07.
Take TATTGT: the binding signal in assay [1] was determined as 1.27; in assay [2], 1.31.
In the same order, the values of TTTATG are 1.37 and 1.28.
The corresponding values for CCGCGT are 0.842 and 1.22.
The corresponding values for ATTGCT are 1.14 and 1.17.
With CTACGA, the binding signal was found to be 1.25 in assay [1] and 1.22 in assay [2].
In the same order, the values of TCCACA are 1.36 and 1.2.
In the same order, the values of ATATGT are 0.984 and 1.14.
The corresponding values for TGCTGT are 0.836 and 1.02.
In the case of GTGGCT, the binding signal came to 1.05 in assay [1] and 1.13 in assay [2].
In the same order, the values of CCTGGT are 1.08 and 1.53.
In the same order, the values of CCTACA are 1.07 and 1.2.
The corresponding values for AAACGG are 0.871 and 1.24.
Consider TACTAA, for which the figures for the binding signal in assay [1] and in assay [2] were 1.51 and 1.2, respectively.
The corresponding values for ATCCGA are 1.56 and 1.18.
As for CTCAGG, the results for the binding signal in assay [1] and in assay [2] were 0.973 and 0.993, respectively.
The corresponding values for TTCAGT are 0.946 and 1.
In the same order, the values of GTATGC are 0.865 and 1.13.
For the sequence TATTCC, the binding signal is 2.11 in assay [1] and 1.82 in assay [2].
The corresponding values for CAACCA are 0.901 and 1.07.
In the same order, the values of CGACCG are 0.898 and 1.19.
The corresponding values for CTCTAG are 2.39 and 1.22.
For TCATTT, the binding signal amounted to 1.14 in assay [1] and 1.41 in assay [2].
The corresponding values for GGCCCC are 0.783 and 0.933.
In the same order, the values of CTTGCA are 1.12 and 1.24.
In the same order, the values of ACATGG are 0.957 and 1.05.
TGCACG: the binding signal in assay [1] turned out to be 0.972; in assay [2], 1.02.
In the same order, the values of CTCAGA are 1.17 and 1.04.
The corresponding values for ACCACC are 0.891 and 1.04.
In the same order, the values of TCGACC are 1.23 and 1.19.
For the sequence TTATTT, the binding signal in assay [1] worked out at 1.64; in assay [2], 1.49.
The corresponding values for TAATAA are 1.76 and 1.2.
As to CCCACA, the binding signal in assay [1] came to 0.872; in assay [2] it was 1.09.
The corresponding values for CGCCCT are 1.13 and 1.35.
The corresponding values for TGCCCG are 1.01 and 1.15.
The corresponding values for TGCGCG are 1.15 and 1.04.
On to CGACGT, for which the binding signal in assay [1] and in assay [2] was 1 each time.
Turning to CCTCAC, the binding signal is 0.97 in assay [1] and 1.17 in assay [2].
Take ACTAAC: the binding signal worked out at 1.08 in assay [1] and 1.24 in assay [2].
Consider CTCATT, for which the binding signal was 1.36 in assay [1] and 1.43 in assay [2].
In the same order, the values of GTCCCT are 0.949 and 1.17.
The corresponding values for GTAACA are 0.844 and 1.15.
The corresponding values for CTTCGC are 1.63 and 1.34.
As to AACAGG, the values for the binding signal in assay [1] and in assay [2] were 0.833 and 1.29, respectively.
In the same order, the values of AAGATA are 1.33 and 1.16.
In the same order, the values of AACCAA are 1.08 and 1.25.
The corresponding values for CACAAT are 0.965 and 1.1.
In the case of AGAAGC, the binding signal in assay [1] is 1.96; in assay [2], 1.12.
ATACCG: the binding signal in assay [1] was determined as 0.825; in assay [2] it was 1.27.
On to GCACCC, for which the binding signal in assay [1] is 0.855; in assay [2] it was 1.16.
The corresponding values for TTCCTT are 1.61 and 2.39.
TGGTAG: the binding signal in assay [1] was 1.06; in assay [2], 0.975.
The corresponding values for TAGGTT are 1.18 and 1.11.
The corresponding values for TTGTGG are 1.37 and 1.35.
In the same order, the values of ACATCA are 0.911 and 1.1.
Turning to TATGGA, the binding signal was determined as 1.33 in assay [1] and 1.1 in assay [2].
The corresponding values for CCGGTA are 0.871 and 1.93.
ATGCAT: the binding signal in assay [1] worked out at 1; in assay [2], 1.19.
The corresponding values for ACACAC are 0.952 and 1.16.
Turning to CCCATT, the values for the binding signal in assay [1] and in assay [2] were 1.15 and 1.28, respectively.
The corresponding values for TGAACC are 0.965 and 1.13.
In the same order, the values of CTTGTC are 1.07 and 1.27.
The corresponding values for CGCTTT are 1.11 and 1.19.
Turning to ACGTTA, the binding signal in assay [1] turned out to be 1.04; in assay [2], 1.03.
On to ATATGG, for which the binding signal in assay [1] was 1.17; in assay [2], 1.26.
As for ATCAGC, the binding signal stood at 1.01 in assay [1] and 0.924 in assay [2].
Take AAGTGG: the binding signal came out at 0.927 in assay [1] and 1.21 in assay [2].
In the same order, the values of ATGTCA are 0.929 and 1.09.
Take CACACT: the binding signal in assay [1] was found to be 0.914; in assay [2], 1.17.
Consider CTGTCA, for which the binding signal in assay [1] was found to be 0.941; in assay [2], 1.06.
In the same order, the values of TTGGGT are 0.948 and 0.97.
In the same order, the values of TTAGGG are 1.48 and 1.11.
In the same order, the values of GATATC are 0.924 and 1.85.
Turning to CCGATG, the binding signal was determined as 0.99 in assay [1] and 1.02 in assay [2].
GGCTAG: the binding signal in assay [1] is 1.18; in assay [2], 1.08.
In the same order, the values of TGCAAC are 1.06 and 1.29.
In the same order, the values of TGGTGT are 0.91 and 1.2.
Regarding AAGCAC, the binding signal in assay [1] turned out to be 1.04; in assay [2] it was 1.2.
In the same order, the values of AAAGCG are 0.989 and 1.08.
In the same order, the values of AAAAGC are 1.3 and 1.23.
In the same order, the values of TACGTT are 1.24 and 1.21.
For the sequence TGTGTT, the binding signal in assay [1] is 0.883; in assay [2], 1.09.
The corresponding values for CGCGAC are 0.992 and 1.05.
With CTCAAC, the binding signal came to 1.1 in assay [1] and 1.21 in assay [2].
With TCTCGC, the binding signal in assay [1] was 2.5; in assay [2], 1.65.
In the same order, the values of TGCGTA are 1.06 and 1.05.
In the same order, the values of TGAAAA are 1.14 and 1.03.
As for CGAATA, the binding signal in assay [1] was 1.87; in assay [2] it was 1.16.
The corresponding values for ACCCTA are 1.18 and 1.22.
The corresponding values for CCCTCG are 1.22 and 1.13.
In the same order, the values of CCTATC are 1.06 and 1.17.
CACGAA: the values for the binding signal in assay [1] and in assay [2] were 1.39 and 1.08, respectively.
For the sequence GGCCTA, the binding signal in assay [1] was determined as 1.33; in assay [2], 1.16.
With CAGAAT, the binding signal in assay [1] is 2.05; in assay [2], 0.98.
In the same order, the values of GGGCTA are 0.989 and 1.06.
In the same order, the values of TCTCAC are 1.3 and 1.23.
On to ACATTG, for which the figures for the binding signal in assay [1] and in assay [2] were 0.953 and 1.08, respectively.
In the same order, the values of ACGGCC are 0.81 and 0.975.
In the same order, the values of ACACTT are 1.11 and 1.84.
In the same order, the values of TGACCT are 1.5 and 1.65.
Take ACATAC: the values for the binding signal in assay [1] and in assay [2] were 1.07 and 1.15, respectively.
The corresponding values for TGAAAC are 1.13 and 1.23.
In the same order, the values of CCCTGG are 1.11 and 1.09.
Consider TAGCAC, for which the binding signal in assay [1] was 1.24; in assay [2] it was 1.1.
The corresponding values for AATTAG are 1.39 and 1.14.
The corresponding values for GCCGAC are 0.836 and 1.04.
As for CAAGGT, the binding signal in assay [1] was 0.938; in assay [2], 0.991.
The corresponding values for GTTTGG are 0.896 and 1.03.
In the same order, the values of CTGCCT are 1.13 and 1.2.
